Reference: publication doi:10.1101/2021.07.01.450807
These are yes or no findings as the source states them, for the method shown.

By UniProt entry, the sequences of proteins in these tests, tags left out. Residues count along the entry.
UniProt P02545, residues 66-230: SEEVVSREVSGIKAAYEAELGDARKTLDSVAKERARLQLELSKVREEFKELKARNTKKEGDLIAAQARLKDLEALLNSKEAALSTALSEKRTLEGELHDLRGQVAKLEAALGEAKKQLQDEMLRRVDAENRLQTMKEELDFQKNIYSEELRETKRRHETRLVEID
UniProt P03070, residues 84-708: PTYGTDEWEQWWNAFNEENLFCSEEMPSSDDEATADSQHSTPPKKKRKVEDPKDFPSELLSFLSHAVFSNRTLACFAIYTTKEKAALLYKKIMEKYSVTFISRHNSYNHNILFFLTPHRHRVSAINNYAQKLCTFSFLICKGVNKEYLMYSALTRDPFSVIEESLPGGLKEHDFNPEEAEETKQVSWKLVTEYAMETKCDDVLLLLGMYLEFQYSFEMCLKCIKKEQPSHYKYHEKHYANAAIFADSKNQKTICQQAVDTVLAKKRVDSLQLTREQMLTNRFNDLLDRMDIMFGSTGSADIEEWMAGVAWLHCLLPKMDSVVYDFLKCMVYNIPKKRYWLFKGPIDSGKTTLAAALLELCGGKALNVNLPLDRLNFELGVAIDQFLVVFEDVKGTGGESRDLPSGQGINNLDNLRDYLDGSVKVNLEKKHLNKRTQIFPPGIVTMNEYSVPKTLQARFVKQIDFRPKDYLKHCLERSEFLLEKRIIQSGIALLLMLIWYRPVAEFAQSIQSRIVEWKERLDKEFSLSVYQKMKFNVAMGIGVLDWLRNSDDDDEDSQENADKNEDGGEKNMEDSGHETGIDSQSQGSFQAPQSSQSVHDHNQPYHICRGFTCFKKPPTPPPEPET

Molecular target: pGBKT7-Lamin (human lamin C amino acids 66-230) bait fusion (human) (UniProt P02545)
Assay: two-hybrid

Substance: pGADT7-Large-T (SV40 large-T antigen amino acids 84-708) prey fusion (from UniProt P03070 84-708) (domain or fragment)
- binding: no binding
